From patent publication US12595267B2, “Preparation method for amide compound and application thereof in field of medicine” (Shanghai Synergy Pharmaceutical Sciences Co., Ltd., priority 2019, dated 2026)
pIC50: −log10 of the molar value.

Tests used:
Type in all cases: cell-based
Pfeiffer cells = experiment: Calcein AM proliferation assay, Pfeiffer cells; settings: Homo sapiens, read-out: Pfeiffer proliferation IC50
WSU-DLCL2 cells = experiment: Calcein AM proliferation assay, WSU-DLCL2 cells; settings: Homo sapiens, WSUDLCL2, […], read-out: WSU-DLCL2 proliferation IC50
Karpas 422 cells = experiment: Calcein AM proliferation assay, Karpas 422 cells; settings: Homo sapiens, read-out: Karpas422 proliferation IC50

pIC50 (Karpas 422 cells): 7.81
SMILES: CCN(c1cc(-c2ccc(CN3CCOCC3)cc2)cc(C(=O)NCc2c(C)cc(C)[nH]c2=O)c1C)C1CCOCC1 [EPZ-6438, reference compound]
pIC50 (Pfeiffer cells): 8.08
pIC50 (WSU-DLCL2 cells): 7.45
